Measurements reported in PubChem BioAssay AID743121 (NCATS, 2013).
In all, the deposit lists about 26,000 reagents; shown is a random part of them. In the full data, 167 (0.63%) got an active call. 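Calls are per gene from RSA p-values that are not deposited; an individual active-marked siRNA can sensitise only weakly.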 The numbers tell different reagents against one gene apart. Further read-outs or replicates are left out here.

Screen: 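Genes whose silencing strengthens cell killing by camptothecin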 (primary screen)
Cells: MDA-MB-231 cells, a human breast cancer line
Knock-down reagent: single siRNA against human genes, 20 nM siRNA (0.8 pmol per well)
Duration: 120 h (drug added 48 h after transfection, read 72 h later)
Challenge: camptothecin 20 nM (about EC30) for 72 h; vehicle 0.1% DMSO in parallel plates
Measured: 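CellTiter-Glo ATP signal, scaled to control siRNA as percent viability; sensitisation given as log2 of untreated divided by camptothecin-treated viability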
Direction: log2 vehicle/camptothecin viability: higher = stronger sensitisation to camptothecin; viability with camptothecin: higher = more viable cells
Units: viability with camptothecin in % of control
Rule for the call: 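Each gene scored by redundant siRNA activity (RSA) over its individual siRNA ratios; a gene is called active at p < 0.001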

With AS3MT (arsenite methyltransferase) #1, what does the deposit list?
log2 vehicle/camptothecin viability: -0.0943; viability with camptothecin: 76.5; activity call: inactive

What is on record for AS3MT (arsenite methyltransferase) #2?
log2 vehicle/camptothecin viability: 0.0981; viability with camptothecin: 60.4; activity call: inactive

What is on record for AS3MT (arsenite methyltransferase) #3?
log2 vehicle/camptothecin viability: -0.315; viability with camptothecin: 76.8; activity call: inactive

With AS3MT (arsenite methyltransferase) #4, what was measured?
log2 vehicle/camptothecin viability: 0.107; viability with camptothecin: 71.9; activity call: inactive

What is on record for GFRA3 (GDNF family receptor alpha 3) #1?
log2 vehicle/camptothecin viability: -0.397; viability with camptothecin: 75.6; activity call: inactive

For GFRA3 (GDNF family receptor alpha 3) #2, how do the results read?
log2 vehicle/camptothecin viability: -0.16; viability with camptothecin: 55.9; activity call: inactive

What is on record for GFRA3 (GDNF family receptor alpha 3) #3?
log2 vehicle/camptothecin viability: 0.19; viability with camptothecin: 86.4; activity call: inactive

With PHB1 (prohibitin 1) #1, what was measured?
log2 vehicle/camptothecin viability: -0.209; viability with camptothecin: 55.3; activity call: inactive

What is on record for PHB1 (prohibitin 1) #2?
log2 vehicle/camptothecin viability: 0.569; viability with camptothecin: 25.2; activity call: inactive

What did the screen give for PHB1 (prohibitin 1) #3?
log2 vehicle/camptothecin viability: -0.374; viability with camptothecin: 56; activity call: inactive

What is on record for PHB1 (prohibitin 1) #4?
log2 vehicle/camptothecin viability: -0.0386; viability with camptothecin: 94.7; activity call: inactive

Which result is listed for DUSP2 (dual specificity phosphatase 2) #1?
log2 vehicle/camptothecin viability: -0.112; viability with camptothecin: 101; activity call: inactive

With DUSP2 (dual specificity phosphatase 2) #2, how do the results read?
log2 vehicle/camptothecin viability: -0.0839; viability with camptothecin: 104; activity call: inactive

What is on record for DUSP2 (dual specificity phosphatase 2) #3?
log2 vehicle/camptothecin viability: -0.0548; viability with camptothecin: 76.2; activity call: inactive

With DUSP2 (dual specificity phosphatase 2) #4, what does the deposit list?
log2 vehicle/camptothecin viability: -0.531; viability with camptothecin: 74.1; activity call: inactive

For CCND2 (cyclin D2) #1, how do the results read?
log2 vehicle/camptothecin viability: -0.305; viability with camptothecin: 97.3; activity call: inactive

What did the screen give for CCND2 (cyclin D2) #2?
log2 vehicle/camptothecin viability: 0.13; viability with camptothecin: 65.2; activity call: inactive

For CCND2 (cyclin D2) #3, what does the deposit list?
log2 vehicle/camptothecin viability: -0.111; viability with camptothecin: 54.3; activity call: inactive

For CCND2 (cyclin D2) #4, what was measured?
log2 vehicle/camptothecin viability: -0.0254; viability with camptothecin: 92.2; activity call: inactive

Which result is listed for SLC6A16 #1?
log2 vehicle/camptothecin viability: -0.386; viability with camptothecin: 106; activity call: inactive

Which result is listed for SLC6A16 #2?
log2 vehicle/camptothecin viability: 0.124; viability with camptothecin: 77.5; activity call: inactive

What is on record for SLC6A16 #3?
log2 vehicle/camptothecin viability: 0.0514; viability with camptothecin: 53.7; activity call: inactive

How did the screen score SLC6A16 #4?
log2 vehicle/camptothecin viability: -0.673; viability with camptothecin: 124; activity call: inactive

With RGS13 (regulator of G protein signaling 13) #1, how do the results read?
log2 vehicle/camptothecin viability: -0.271; viability with camptothecin: 28.2; activity call: inactive

Which result is listed for RGS13 (regulator of G protein signaling 13) #2?
log2 vehicle/camptothecin viability: 0.261; viability with camptothecin: 48.1; activity call: inactive

Which result is listed for RGS13 (regulator of G protein signaling 13) #3?
log2 vehicle/camptothecin viability: -0.101; viability with camptothecin: 102; activity call: inactive

With SLC6A4 #1, what does the deposit list?
log2 vehicle/camptothecin viability: -0.00462; viability with camptothecin: 94.9; activity call: inactive

What is on record for SLC6A4 #2?
log2 vehicle/camptothecin viability: 0.213; viability with camptothecin: 77.8; activity call: inactive

For SLC6A4 #3, how do the results read?
log2 vehicle/camptothecin viability: -0.025; viability with camptothecin: 92.9; activity call: inactive

What is on record for ADGRL4 (adhesion G protein-coupled receptor L4) #1?
log2 vehicle/camptothecin viability: 0.702; viability with camptothecin: 54.5; activity call: inactive

With ADGRL4 (adhesion G protein-coupled receptor L4) #2, what was measured?
log2 vehicle/camptothecin viability: -0.361; viability with camptothecin: 88.2; activity call: inactive

Which result is listed for ADGRL4 (adhesion G protein-coupled receptor L4) #3?
log2 vehicle/camptothecin viability: -0.279; viability with camptothecin: 79.7; activity call: inactive

What did the screen give for ADGRL4 (adhesion G protein-coupled receptor L4) #4?
log2 vehicle/camptothecin viability: -0.437; viability with camptothecin: 86.4; activity call: inactive

For GNGT1 (G protein subunit gamma transducin 1) #1, what does the deposit list?
log2 vehicle/camptothecin viability: -0.0726; viability with camptothecin: 102; activity call: inactive

How did the screen score GNGT1 (G protein subunit gamma transducin 1) #2?
log2 vehicle/camptothecin viability: -0.0552; viability with camptothecin: 57.1; activity call: inactive

With GNGT1 (G protein subunit gamma transducin 1) #3, what was measured?
log2 vehicle/camptothecin viability: -0.0297; viability with camptothecin: 83.4; activity call: inactive

For GNGT1 (G protein subunit gamma transducin 1) #4, what does the deposit list?
log2 vehicle/camptothecin viability: -0.549; viability with camptothecin: 114; activity call: inactive

As entered above:
SLC6A16 #4, log2 vehicle/camptothecin viability = -0.673
Value of SLC6A4 #2 in “activity call”: inactive
GFRA3 (GDNF family receptor alpha 3) #3, activity call → inactive
Under “log2 vehicle/camptothecin viability”, SLC6A16 #2 reads 0.124
